# According to paper doi:10.1101/2024.01.10.574988:
# Sequences of proteins named here, by UniProt entry; tags and fusion partners are left off. Residues count along the entry.
# UniProt Q07954, residues 20-4544: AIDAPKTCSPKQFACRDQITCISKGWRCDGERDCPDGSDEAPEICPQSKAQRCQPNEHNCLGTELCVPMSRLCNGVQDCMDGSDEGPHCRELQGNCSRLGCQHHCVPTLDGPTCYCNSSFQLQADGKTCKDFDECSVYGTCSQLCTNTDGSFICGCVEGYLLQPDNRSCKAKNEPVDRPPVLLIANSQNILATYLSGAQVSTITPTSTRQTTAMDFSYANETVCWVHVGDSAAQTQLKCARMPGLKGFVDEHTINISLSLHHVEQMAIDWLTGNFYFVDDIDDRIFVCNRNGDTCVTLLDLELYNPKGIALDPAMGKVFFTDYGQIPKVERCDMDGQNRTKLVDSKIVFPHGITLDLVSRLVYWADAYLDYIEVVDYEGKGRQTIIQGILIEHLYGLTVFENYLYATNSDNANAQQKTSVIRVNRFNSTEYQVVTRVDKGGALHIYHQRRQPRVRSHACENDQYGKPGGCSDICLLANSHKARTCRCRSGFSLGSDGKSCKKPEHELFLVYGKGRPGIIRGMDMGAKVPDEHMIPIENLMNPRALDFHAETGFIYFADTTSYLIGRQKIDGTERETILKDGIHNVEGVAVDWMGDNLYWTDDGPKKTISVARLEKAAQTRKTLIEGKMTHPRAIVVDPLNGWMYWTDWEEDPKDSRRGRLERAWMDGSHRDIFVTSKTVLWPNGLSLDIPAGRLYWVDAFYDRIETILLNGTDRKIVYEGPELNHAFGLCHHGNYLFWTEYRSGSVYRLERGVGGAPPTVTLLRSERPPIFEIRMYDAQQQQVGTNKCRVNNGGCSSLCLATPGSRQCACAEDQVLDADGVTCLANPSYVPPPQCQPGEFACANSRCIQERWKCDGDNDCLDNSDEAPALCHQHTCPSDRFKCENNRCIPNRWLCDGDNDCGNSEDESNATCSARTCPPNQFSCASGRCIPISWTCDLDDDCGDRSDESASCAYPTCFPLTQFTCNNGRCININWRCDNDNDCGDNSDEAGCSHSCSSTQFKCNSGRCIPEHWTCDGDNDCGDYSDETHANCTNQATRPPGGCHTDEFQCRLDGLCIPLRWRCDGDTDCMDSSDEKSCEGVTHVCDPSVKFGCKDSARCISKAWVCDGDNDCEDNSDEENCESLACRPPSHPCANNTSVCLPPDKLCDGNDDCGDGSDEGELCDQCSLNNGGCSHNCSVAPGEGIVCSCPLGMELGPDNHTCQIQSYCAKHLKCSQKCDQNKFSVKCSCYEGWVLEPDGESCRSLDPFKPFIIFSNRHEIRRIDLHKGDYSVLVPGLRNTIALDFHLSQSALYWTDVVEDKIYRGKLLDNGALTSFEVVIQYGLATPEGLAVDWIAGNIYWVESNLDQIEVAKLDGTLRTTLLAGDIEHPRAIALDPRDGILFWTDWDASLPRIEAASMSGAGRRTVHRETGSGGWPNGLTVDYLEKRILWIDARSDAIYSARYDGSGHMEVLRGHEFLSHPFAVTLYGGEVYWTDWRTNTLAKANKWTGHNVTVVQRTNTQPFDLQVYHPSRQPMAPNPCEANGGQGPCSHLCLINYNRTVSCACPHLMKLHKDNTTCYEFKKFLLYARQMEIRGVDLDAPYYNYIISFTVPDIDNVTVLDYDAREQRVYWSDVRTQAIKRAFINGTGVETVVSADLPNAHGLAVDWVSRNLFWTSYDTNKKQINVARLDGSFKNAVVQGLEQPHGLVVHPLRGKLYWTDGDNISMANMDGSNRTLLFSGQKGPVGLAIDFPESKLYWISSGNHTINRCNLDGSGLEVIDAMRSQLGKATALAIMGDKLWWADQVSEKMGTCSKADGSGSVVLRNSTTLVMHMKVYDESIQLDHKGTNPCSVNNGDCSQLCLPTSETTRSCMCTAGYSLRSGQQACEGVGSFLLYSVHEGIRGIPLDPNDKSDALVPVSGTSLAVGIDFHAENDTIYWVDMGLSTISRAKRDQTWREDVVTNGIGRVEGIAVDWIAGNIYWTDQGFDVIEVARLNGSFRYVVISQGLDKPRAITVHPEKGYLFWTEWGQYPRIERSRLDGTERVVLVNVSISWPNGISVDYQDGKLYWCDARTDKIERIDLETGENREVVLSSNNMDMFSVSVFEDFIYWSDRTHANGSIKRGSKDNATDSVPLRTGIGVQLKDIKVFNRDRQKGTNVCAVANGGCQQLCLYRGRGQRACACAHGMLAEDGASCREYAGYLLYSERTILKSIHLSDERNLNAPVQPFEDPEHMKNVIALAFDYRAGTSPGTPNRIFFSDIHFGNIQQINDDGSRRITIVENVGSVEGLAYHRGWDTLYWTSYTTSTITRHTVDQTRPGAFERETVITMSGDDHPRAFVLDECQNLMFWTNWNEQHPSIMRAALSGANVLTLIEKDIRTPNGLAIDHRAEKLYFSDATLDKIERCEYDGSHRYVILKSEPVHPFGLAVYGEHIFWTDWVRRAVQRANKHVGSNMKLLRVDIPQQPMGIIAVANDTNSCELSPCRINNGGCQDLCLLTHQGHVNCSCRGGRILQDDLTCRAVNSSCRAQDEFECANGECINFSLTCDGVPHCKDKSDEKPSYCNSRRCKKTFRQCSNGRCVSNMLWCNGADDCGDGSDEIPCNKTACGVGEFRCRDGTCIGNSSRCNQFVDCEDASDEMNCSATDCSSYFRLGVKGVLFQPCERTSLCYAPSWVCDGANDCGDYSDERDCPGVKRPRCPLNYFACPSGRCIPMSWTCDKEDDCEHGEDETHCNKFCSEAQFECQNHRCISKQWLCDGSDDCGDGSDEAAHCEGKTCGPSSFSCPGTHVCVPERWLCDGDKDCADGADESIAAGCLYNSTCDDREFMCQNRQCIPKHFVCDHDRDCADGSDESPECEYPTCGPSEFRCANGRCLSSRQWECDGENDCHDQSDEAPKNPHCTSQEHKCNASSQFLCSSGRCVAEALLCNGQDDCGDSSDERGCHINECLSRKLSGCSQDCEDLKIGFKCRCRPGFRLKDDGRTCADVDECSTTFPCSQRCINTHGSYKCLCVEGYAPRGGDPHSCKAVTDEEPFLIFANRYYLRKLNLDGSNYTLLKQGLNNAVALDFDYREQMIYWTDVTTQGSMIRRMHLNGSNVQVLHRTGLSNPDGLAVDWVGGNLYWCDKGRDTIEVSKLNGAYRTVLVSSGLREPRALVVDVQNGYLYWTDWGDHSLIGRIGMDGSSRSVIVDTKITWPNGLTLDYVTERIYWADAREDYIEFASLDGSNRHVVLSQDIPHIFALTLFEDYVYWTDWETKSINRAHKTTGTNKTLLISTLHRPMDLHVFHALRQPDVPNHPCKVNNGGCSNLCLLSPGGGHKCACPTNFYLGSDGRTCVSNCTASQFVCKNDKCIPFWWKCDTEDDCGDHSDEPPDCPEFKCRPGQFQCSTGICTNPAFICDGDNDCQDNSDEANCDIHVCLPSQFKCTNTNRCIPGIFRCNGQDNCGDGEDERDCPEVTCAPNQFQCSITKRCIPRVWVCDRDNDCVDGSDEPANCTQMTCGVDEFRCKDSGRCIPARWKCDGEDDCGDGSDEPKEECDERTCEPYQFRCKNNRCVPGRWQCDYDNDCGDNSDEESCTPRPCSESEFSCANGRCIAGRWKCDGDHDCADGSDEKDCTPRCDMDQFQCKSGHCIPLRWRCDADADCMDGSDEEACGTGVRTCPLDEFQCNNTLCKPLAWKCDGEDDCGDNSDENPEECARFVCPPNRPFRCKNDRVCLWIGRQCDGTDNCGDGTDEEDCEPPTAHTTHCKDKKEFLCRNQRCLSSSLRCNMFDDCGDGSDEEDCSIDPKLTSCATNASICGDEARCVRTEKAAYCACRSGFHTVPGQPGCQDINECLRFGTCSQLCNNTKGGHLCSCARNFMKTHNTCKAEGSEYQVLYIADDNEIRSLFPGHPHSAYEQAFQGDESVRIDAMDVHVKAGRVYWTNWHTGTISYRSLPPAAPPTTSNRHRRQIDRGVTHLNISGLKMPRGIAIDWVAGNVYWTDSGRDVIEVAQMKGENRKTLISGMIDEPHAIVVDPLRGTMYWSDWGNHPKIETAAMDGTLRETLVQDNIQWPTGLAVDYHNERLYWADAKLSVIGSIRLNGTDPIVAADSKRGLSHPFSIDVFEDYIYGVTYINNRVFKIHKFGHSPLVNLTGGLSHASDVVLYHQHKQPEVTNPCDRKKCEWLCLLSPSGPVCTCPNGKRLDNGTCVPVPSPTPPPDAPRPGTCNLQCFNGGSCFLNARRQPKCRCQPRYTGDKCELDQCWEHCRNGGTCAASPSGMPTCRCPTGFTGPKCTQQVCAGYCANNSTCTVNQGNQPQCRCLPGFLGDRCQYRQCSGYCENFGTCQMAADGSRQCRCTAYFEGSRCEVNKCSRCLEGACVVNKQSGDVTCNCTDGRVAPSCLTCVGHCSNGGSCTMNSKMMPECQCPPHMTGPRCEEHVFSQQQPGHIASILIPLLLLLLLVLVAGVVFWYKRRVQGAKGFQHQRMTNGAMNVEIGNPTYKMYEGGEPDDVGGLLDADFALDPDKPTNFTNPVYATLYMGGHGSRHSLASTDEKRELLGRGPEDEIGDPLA
# Where a chain is given by its changes, count along the chain named. No constants are given. Whether binding was seen depends on the method and setting. In cells and extracts the contact can be indirect. Some binding calls cover weakened binding; strength is not graded here. For some assays here: Where a sequence is shown, tags or fusion partners need not be part of it.
# Columns and labels:
# Assay in all cases: co-IP
# [1] = molecular target: T1, GFP-SNX17 (human) (UniProt Q15036)
# T1 sequence: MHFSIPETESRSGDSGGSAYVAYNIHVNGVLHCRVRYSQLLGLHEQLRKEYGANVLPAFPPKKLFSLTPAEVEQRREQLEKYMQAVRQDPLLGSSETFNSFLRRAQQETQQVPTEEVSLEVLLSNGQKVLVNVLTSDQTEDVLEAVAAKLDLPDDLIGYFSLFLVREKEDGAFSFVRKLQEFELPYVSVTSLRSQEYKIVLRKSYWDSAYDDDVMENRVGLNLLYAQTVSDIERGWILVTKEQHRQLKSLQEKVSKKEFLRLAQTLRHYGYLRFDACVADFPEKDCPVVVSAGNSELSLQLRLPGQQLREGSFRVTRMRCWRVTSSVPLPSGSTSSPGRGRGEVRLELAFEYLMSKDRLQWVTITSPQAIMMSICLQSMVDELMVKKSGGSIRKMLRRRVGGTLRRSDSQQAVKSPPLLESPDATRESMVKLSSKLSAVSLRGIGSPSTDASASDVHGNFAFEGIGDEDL
# [2] = molecular target: T2, GFP-SNX17(F462A) (human) (UniProt Q15036)
# T2 sequence: T1 sequence with F462A
# [3] = molecular target: T3, GFP-SNX17(F462E) (human) (UniProt Q15036)
# T3 sequence: T1 sequence with F462E
# [4] = molecular target: T4, GFP-SNX17(M384E) (human) (UniProt Q15036)
# T4 sequence: T1 sequence with M384E
# [5] = molecular target: T5, GFP-SNX17(NFAF-AAAA) (human) (UniProt Q15036)
# T5 sequence: T1 sequence with N459A, F460A, F462A
# [6] = molecular target: T6, GFP-SNX17(V380D) (human) (UniProt Q15036)
# T6 sequence: T1 sequence with V380D
# [7] = molecular target: T7, GFP-SNX17(W321A) (human) (UniProt Q15036)
# T7 sequence: T1 sequence with W321A
# [8] = molecular target: VPS35L(K283E)-GFP (human) (UniProt Q7Z3J2)
# [9] = molecular target: VPS35L(R248A)-GFP (human) (UniProt Q7Z3J2)
# [10] = molecular target: VPS35L(W280A)-GFP (human) (UniProt Q7Z3J2)
# [11] = molecular target: VPS35L-GFP (human) (UniProt Q7Z3J2)
binding [1],binding [2],binding [3],binding [4],binding [5],binding [6],binding [7],binding [8],binding [9],binding [10],binding [11],Substance
binds,binds,binds,binds,binds,binds,binds,,,,,LRP1 (lipoprotein receptor) in HEK293T lysate (from UniProt Q07954 20-4544)
,,,,,,,binds,binds,binds,binds,VPS26C in HEK293T lysate (from UniProt O14972 1-297)
